# Inconclusive results, whose numbers are uncertain, are shown with a selection of clear calls. A potency beside an inconclusive call is a rough fit, not a confirmed value. Calls of active or inactive are those of the source. The calls were made as follows: active = hit-call score of the fitted dose curve at least 0.9, where 1 is the maximum; inconclusive = response in the unintended direction; inactive = score below 0.9.
# Protein sequences, listed by entry. Tags and fused reporters are not part of them. Lines headed by an entry give the natural chain unless they say otherwise; changes in a name come on top.
# UniProt P10275: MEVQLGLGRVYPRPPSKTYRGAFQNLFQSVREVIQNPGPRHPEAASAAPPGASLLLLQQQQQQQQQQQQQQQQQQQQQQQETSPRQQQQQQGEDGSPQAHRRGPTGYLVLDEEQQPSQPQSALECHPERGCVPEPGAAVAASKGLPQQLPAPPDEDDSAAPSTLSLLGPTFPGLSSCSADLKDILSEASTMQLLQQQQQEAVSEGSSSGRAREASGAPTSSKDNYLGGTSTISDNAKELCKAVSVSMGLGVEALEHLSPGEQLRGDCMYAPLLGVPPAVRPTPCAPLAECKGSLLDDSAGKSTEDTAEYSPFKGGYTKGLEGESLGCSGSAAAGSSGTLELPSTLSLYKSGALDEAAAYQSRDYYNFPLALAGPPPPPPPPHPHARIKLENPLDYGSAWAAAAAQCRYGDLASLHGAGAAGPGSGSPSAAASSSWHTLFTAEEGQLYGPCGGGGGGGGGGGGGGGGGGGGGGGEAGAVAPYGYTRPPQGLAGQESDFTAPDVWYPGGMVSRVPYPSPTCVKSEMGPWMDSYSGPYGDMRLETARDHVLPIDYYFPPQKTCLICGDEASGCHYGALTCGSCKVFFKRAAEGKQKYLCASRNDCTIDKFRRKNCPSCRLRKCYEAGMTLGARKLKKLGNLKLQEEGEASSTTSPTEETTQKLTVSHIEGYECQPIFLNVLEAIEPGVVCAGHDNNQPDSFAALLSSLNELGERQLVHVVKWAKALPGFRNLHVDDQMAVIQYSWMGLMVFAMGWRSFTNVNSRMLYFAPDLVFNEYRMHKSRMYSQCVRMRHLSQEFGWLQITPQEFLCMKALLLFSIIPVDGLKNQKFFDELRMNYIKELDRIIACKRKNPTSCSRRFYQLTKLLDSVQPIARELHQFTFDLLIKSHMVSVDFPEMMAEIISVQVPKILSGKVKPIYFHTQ
# Molecular target: Nucleoli Translocation, AR (gene 367) (UniProt P10275)
# Test: UPITT_HCI_U2OS_AR_TIF2_Nucleoli_Agonist: University of Pittsburgh U2OS Androgen Receptor-Transcriptional Intermediary Factor 2 (AR-TIF2) Agonism High Content Imaging Assay for Nucleoli Translocation (AID 2283998)
# Summary of the method: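 High-content images quantify nucleolar accumulation of RFP-fused AR in cells also expressing GFP-TIF2; the endpoint is fitted as signal gain versus DMSO controls across final concentrations of 0.195 to 50 uM.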
SMILES,outcome,AC50
O=C(c1ccccc1)C1CCCCC1,inactive,–
CCN(Cc1cccnc1)C(=O)c1cccc(Cl)c1[C@]1(C)C(=O)N(Cc2ccc(OC)cc2OC)c2ccc(Cl)cc21,inactive,–
O=Cc1ccccc1C=O,inactive,–
c1ccc2[nH]c(-c3cscn3)nc2c1,–,inconclusive: 50 µM
Cc1c2ccccc2c(C)c2c1ccc1ccccc12,inactive,–
Cc1cc(CCN2CCN(c3nsc4ccccc34)CC2)cc2c1NC(=O)CC2(C)C,–,inconclusive: 0.00897 µM
CN(C)CCOC(c1ccccc1)c1ccccc1,inactive,–
CCCc1ccc(OC)cc1,–,inconclusive: 50.5 µM
COc1ccc(C(=O)c2ccccc2)c(O)c1,–,inconclusive: 50 µM
COc1cc([N+](=O)[O-])ccc1N,–,inconclusive: 50 µM
CN(C)C(=O)Nc1ccc(Cl)c(Cl)c1,–,inconclusive: 0.539 µM
CC(C)CCCCCCc1ccc(OCCOCCO)cc1,–,inconclusive: 25000 µM
CN(Cc1cnc2nc(N)nc(N)c2n1)c1ccc(C(=O)N[C@@H](CCC(=O)O)C(=O)O)cc1,inactive,–
Cc1ccc(C)c(C)c1,inactive,–
CC1(C)C(C=C(Cl)Cl)C1C(=O)OCc1cccc(Oc2ccccc2)c1 (centres undefined),–,inconclusive: 50 µM
Cc1ccc(C)c(OCCCC(C)(C)C(=O)O)c1,inactive,–
NC(=NCCCCCCN=C(N)/N=C(\N)Nc1ccc(Cl)cc1)/N=C(\N)Nc1ccc(Cl)cc1,inactive,–
CCC(=C(c1ccc(O)cc1)c1ccc(OCCN(C)C)cc1)c1ccccc1,–,active: 22.5 µM
CC[C@H](c1ccc(O)cc1)[C@@H](CC)c1ccc(O)cc1,–,active: 50 µM

# Reference: PubChem BioAssay (EPA / NIEHS)
